Measurements as given in the supplement of paper PMC12823440, “Inhibitors supercharge kinase turnover through native proteolytic circuits” (Nature, 2025).
Counter-ions that a name gives are not always drawn. The list shows a part of the results. Hit calls seldom repeat between salt and free forms of one compound.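 In K562 cells expressing nanoluciferase-fused kinases, luminescence was recorded at 4 h intervals between 2 and 18 h, normalized as percent of control with DMSO at 100% and a positive control at 0%. A significant (2 sigma) signal drop marks a time point as decreased. The authors' rule for a hit is not shown and takes in more than the number of time points.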

Chains of the proteins cited; added tags and fusions are not shown. Lines headed by an entry give the natural chain unless they say otherwise; changes in a name come on top.
UniProt P49840: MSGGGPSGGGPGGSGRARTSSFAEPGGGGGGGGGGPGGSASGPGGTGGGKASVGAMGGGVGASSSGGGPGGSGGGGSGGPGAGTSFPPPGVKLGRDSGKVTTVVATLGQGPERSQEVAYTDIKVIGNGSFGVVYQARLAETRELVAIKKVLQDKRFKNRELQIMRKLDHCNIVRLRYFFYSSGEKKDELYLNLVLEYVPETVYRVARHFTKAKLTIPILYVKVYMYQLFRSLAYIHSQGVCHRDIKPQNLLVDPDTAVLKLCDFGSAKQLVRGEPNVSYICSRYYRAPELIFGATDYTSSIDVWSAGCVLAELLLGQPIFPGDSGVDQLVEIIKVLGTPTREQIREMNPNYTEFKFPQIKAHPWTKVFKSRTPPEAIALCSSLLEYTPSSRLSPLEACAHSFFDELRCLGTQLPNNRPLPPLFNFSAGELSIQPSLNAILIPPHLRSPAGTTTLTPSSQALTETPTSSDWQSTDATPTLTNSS

Target: GSK3A (UniProt P49840)
Test: number of time points (of 5) at which kinase-Nluc abundance scored as decreased, DMSO-normalised (count); higher = more persistent destabilization
Settings: K562; 2-18 h

Compound	number of time points
COc1ccc(-c2cnc3c(-c4cccc5ncccc45)cnn3c2)cc1 (10 µM)	0
Cc1c(Br)c(Br)c2c3c1nc(N1CCNCC1)n3CCC2 [SEL120-34A (monohydrochloride)] (2.5 µM)	0
Cc1nc(Nc2ncc(C(=O)Nc3c(C)cccc3Cl)s2)cc(N2CCN(C(=O)CCCCCCC(=O)N[C@H](C(=O)N3C[C@H](O)C[C@H]3C(=O)NCc3ccc(-c4scnc4C)cc3)C(C)(C)C)CC2)n1 (2.5 µM)	1
CC(=O)Nc1nc(C)c(-c2ccc(Cl)c(S(=O)(=O)NCCO)c2)s1 (10 µM)	0
CC(C)n1nc(C#Cc2ccccc2)c2c(N)ncnc21 (10 µM)	0
COc1cc(OC)c(/C=C/S(=O)(=O)Cc2ccc(OC)c(NCC(=O)O)c2)c(OC)c1 [Rigosertib (sodium)] (10 µM)	0
CNC[C@@H](NC(=O)c1ccc(-c2nc([C@H]3CC[C@H](O)[C@@H](F)C3)cnc2N)cc1F)c1cc(F)cc(Br)c1 [Rineterkib] (10 µM)	0
CCCC[C@H](CO)Nc1nc(NC)ncc1OC [Interferon receptor inducer-1] (10 µM)	0
CC(C)=C/C=C1\O[C@@H]2CC(C)=CC(=O)[C@@H]2[C@]1(C)O [Bisabolangelone] (10 µM)	0
CCCCCC1CC1CC1CC1CCCCCCCC(=O)O (configuration not stated) (10 µM)	0
CNC(=O)c1c(C)oc2cc(Oc3ncnc4cc(OC)c(OC)cc34)ccc12 [Fruquintinib] (10 µM)	0
CC(C)(C)S(=O)(=O)c1cc2c(Nc3ccc4scnc4c3)ccnc2cc1OCCOCCOCCOCCOCC(=O)Nc1cccc2c1CN(C1CCC(=O)NC1=O)C2=O (configuration not stated) [PROTAC RIPK degrader-6] (10 µM)	0
C[C@]1(O)C[C@@](N)(c2ccc(-c3nc4n(c3-c3ccccc3)COc3ccncc3-4)cc2)C1 [TAS-117 (hydrochloride)] (10 µM)	0
CNC(=O)c1nnc(NC(=O)C2CC2)cc1Nc1cccc(-c2ncn(C)n2)c1OC [Deucravacitinib] (10 µM)	0
O=c1sn(-c2cccc3ccccc23)c(=O)n1Cc1ccccc1 [Tideglusib] (10 µM)	0
C=CC(=O)Nc1cccc(Oc2nc(Nc3ccc(N4CCN(C)CC4)cc3)ncc2Cl)c1 (2.5 µM)	0
CNC(=O)c1ccc(-c2cnc3ncc(Cc4ccc5ncccc5c4)n3n2)cc1F [Capmatinib] (10 µM)	0
CN(C)C(=O)c1cc2cnc(Nc3ccc(NC(=O)C4(C(=O)Nc5ccc(F)cc5)CC4)cc3)nc2n1C1CCCC1 (2 µM)	5
Cn1cc(C2=C(c3c4n(c5ccccc35)CCC(CN)C4)C(=O)NC2=O)c2ccccc21 (configuration not stated) [Bisindolylmaleimide X (hydrochloride)] (2.5 µM)	0
COc1cc(/C=C/c2ccc(NC(=O)/C=C/c3cc(OC)c(OC)c(OC)c3)cc2)cc(OC)c1 (2.5 µM)	0
O=C(N=c1sccn1Cc1ccccc1)c1c[nH]c2ncccc12 (10 µM)	0
C=CCN(/C=C1/C(=O)O[C@H](COC)[C@@]2(C)C1=C(O)C(=O)C1=C2[C@H](OC(C)=O)C[C@]2(C)C(=O)CC[C@@H]12)CC=C [Sonolisib] (2.5 µM)	0
CC(C)(C)c1ccc(C(=O)Nc2cn3cc(-n4ccnc4)ccc3n2)cc1 (10 µM)	0
C[C@@]12CCc3occc3[C@H]1CC[C@@]13C[C@@H](CC[C@H]12)[C@@](O)(CO)C3 [Cafestol] (10 µM)	0
O=S(=O)(c1cccc2c(Cl)cccc12)N1CCCNCC1 (10 µM)	0
Oc1ccc2ccccc2c1SSc1c(O)ccc2ccccc12 (10 µM)	0
COc1cc(Nc2nc3ccccc3nc2NS(=O)(=O)c2ccc(NC(=O)c3ccc(C)c(OC)c3)cc2)cc(OC)c1 (10 µM)	0

2 neighbouring compounds from above:
Compound	number of time points
Oc1ccc2ccccc2c1SSc1c(O)ccc2ccccc12 (10 µM)	0
COc1cc(Nc2nc3ccccc3nc2NS(=O)(=O)c2ccc(NC(=O)c3ccc(C)c(OC)c3)cc2)cc(OC)c1 (10 µM)	0
